According to patent US20040167112A1, “Use of estrogen receptor alpha modulators for the treatment of multiple sclerosis” (Wyeth, priority 2003, published 2004):
Entries after “also recorded” stand apart in the source; their conditions may differ. At least one structure is not confirmed: it was looked up by name or label, or the drawing left a doubt.

How the values were obtained:
[1] = test system: experimental autoimmune encephalomyelitis (EAE), brain and spinal cord; test: Histological analysis of brains and spinal cords of EAE mice at peak disease; type: in vivo, SJL mice
Description: Histological Analysis. At peak disease (14 days PT), mice were euthanized with CO2. […] Brains were cut into three segments (roughly, anterior cerebrum, midbrain and cerebellum) and embedded as a single block. […] A standard H&E (hematoxylin and eosin) glass slide was prepared from each tissue block (brain and spinal cord) from each mouse submitted with two resulting H&E slides per mouse evaluated. Slides were evaluated and lesions seen were graded subjectively for presence (P=present) and/or severity. […] The location of findings, relative to the organ, was denoted as perivascular, periventricular, ependymal or meningeal, and also as focal (in small areas or not throughout the section), or diffuse (throughout the section examined). Focal was defined as very localized and not affecting every structure. Findings not defined as focal were diffuse or affecting every structure (e.g. all vessels). […] Typical murine models of EAE have scattered foci of slight to moderate-sized aggregates of leukocytes and rarely have diffuse infiltrates in the affected tissues.

[2] = test system: splenocytes from mice with EAE; test: PLP-specific recall responses: cytokine production by splenocytes from mice with EAE after in vivo administration; parameters: species or system SJL mice; conditions: in vivo treatment, 5 μg/ml PLP, 3 days
[3] = test system: experimental autoimmune encephalomyelitis (EAE); test: EAE induced by adoptive transfer of PLP-primed effector cells: clinical disease; type: in vivo; conditions: ovariectomized female SJL recipient mice, compounds daily s.c. or p.o. from 5-7 days before transfer; severity scale 0-6
[4] = test system: PLP-primed effector T cells (splenocytes); test: Proliferation of effector T cells upon antigen (PLP) stimulation, CFSE flow cytometry; type: cell-based, SJL mice; conditions: compound 1 μM, 3 days
Source text: Effect of compounds on proliferation of effector T cells upon antigen stimulation To examine the effect of proliferation of effector T cells in vitro in response to PLP stimulation, T-cell proliferation was examined by flow cytometry using the following assay. SJL mice were immunized with PLP emulsified in CFA. After 10 days, spleens were collected and single cell suspensions were made. After lysis of red blood cells, splenocytes were labeled with carboxy fluorescein succinimidyl ester (CFSE). CFSE-labeled cells were then incubated with PLP for 3 days at 37° C., 5% CO2. Compounds were added at a final concentration of 1 μM. To determine the percentage of CD4^+ cells that divided, the CFSE-labeled cells were stained with antibodies specific for the CD4 marker prior to flow cytometric analysis.

[5] = test system: PLP-primed effector cells (splenocytes); test: Cytokine production by PLP-primed effector cells upon antigen stimulation in vitro; type: cell-based, SJL mice; conditions: compound 1 μM, 5 μg/ml PLP, 3 days
Description: To examine in vitro the effect of compounds on cytokine production by PLP-primed effector cells, SJL mice were immunized with PLP emulsified in CFA. After 10 days, spleens were collected and single cell suspensions were made. After lysis of red blood cells, splenocytes were stimulated with 5 μg/ml PLP in the presence of compound for 3 days at 37° C., 5% CO2. Control samples were not stimulated and cultured in medium only (“medium”). Compounds were added at a final concentration of 1 μM. After the 3-day incubation, supernatants were collected and stored at −20° C. Cytokines (TNF-α, IFN-γ, IL-5, IL-4, IL-2) were measured in the supernatants using a Cytometric Bead Array kit.

[6] = Table III (ER-selective agonists), 14 days PT

For CCCc1c(-c2ccc(O)cc2)nn(-c2ccc(O)cc2)c1-c1ccc(O)cc1 [PPT, propylpyrazole triol], the spinal cord lesions ([1]; ER-selective agonist experiment) was “None of these mice had spinal cord lesions”, the “Brain Meningeal/Perivascular Leukocyte Infiltrates: number of brains with finding/total number evaluated” value [1, 6] was 4/4 and the “Distribution of Brain Lesions” value [1, 6] was “Base of the Brain”. For the same compound, the “leukocyte infiltrates in the meninges” value ([1]; all four mice, only at the base of the brain) was “slight”, the “inflammation in the brain and spinal cords” value ([1]; compared with mice treated with vehicle or an ERβ-selective agonist) was “reduced inflammation” and the “pathology and leukocyte infiltration in the brains and spinal cords” value ([1]; conclusions) was “reduced pathology and leukocyte infiltration”. The “IFN-γ production by splenocytes from mice with EAE” value [2] was “suppressed”, the “IL-2 production by splenocytes from mice with EAE” value [2] was “suppressed” and the “IL-4 production by splenocytes from mice with EAE” value [2] was “suppressed”. The “IL-5 production by splenocytes from mice with EAE” value [2] was “suppressed”, the “TNF-α production by splenocytes from mice with EAE” value [2] was “suppressed” and the “IL-10 production by splenocytes from mice with EAE” value ([2]; ELISA) was “suppressed”. For the same compound, the “cytokine production upon stimulation of splenocytes with PLP in vitro” value ([2]; spleens 14 days PT) was “decreased cytokine production”, the “onset, incidence and severity of disease (EAE)” value [3] was “delay in onset as well as decreased incidence and severity of disease; also recorded: delayed onset of disease, as well as decreased incidence and severity” and the “proliferation of CD4+ cells upon antigen stimulation” value [4] was “suppressed”. For the same compound, the “proliferation of CD4− cells upon antigen stimulation” value [4] was “suppressed”, the “proliferation of antigen-specific T cells” value [4] was “decreased proliferation” and the “IFN-γ production by effector T cells upon antigen stimulation” value [5] was “suppressed”. The “TNF-α production by effector T cells upon antigen stimulation” value [5] was “inhibited” and the “cytokine production by effector cells upon antigen stimulation” value [5] was “decreased cytokine production”.
